{"source": "the supplement of paper PMC8497498", "note": "± gives the standard deviation of the averaged measurements. Some of the results follow. The data scatter; read single values as rough.", "data": [{"test_system": "primary human hepatocytes", "assay": "hepatic nuclei reduction relative to DMSO (100 - % of negative control); higher = more toxic to hepatocytes", "details": "10 µM; assay mode: Prophylactic (treated before or shortly after infection), fixed day 6 post-infection", "units": {"hepatic nuclei reduction": "%"}, "values": [{"smiles": "Cc1ccc2nc(Cl)c(CNCc3cccs3)cc2c1", "hepatic nuclei reduction": -10}, {"smiles": "CC(C)(CN)c1nc(-c2ccc(Cl)c(O)c2)c(-c2ccnc(N)n2)[nH]1", "hepatic nuclei reduction": -11}, {"smiles": "O[C@H](c1cc(C(F)(F)F)nc2c(C(F)(F)F)cccc12)[C@@H]1CCCCN1", "hepatic nuclei reduction": "8.5 ± 0.71"}, {"smiles": "CCOC(=O)c1cnc2c(C)cc(C)cc2c1Nc1ccc(OC)c(OC)c1", "hepatic nuclei reduction": -17}, {"smiles": "Nc1nc(O)c(Br)c(-c2ccccc2)n1", "hepatic nuclei reduction": 1}, {"smiles": "O=C(NC1CCN(Cc2ccccc2)CC1)c1cc(-c2ccncc2)nc2ccc(Cl)cc12", "hepatic nuclei reduction": -6}, {"smiles": "OC[C@H]1O[C@@H](n2c3ccc(Cl)cc3c3c(-c4cc5ccccc5o4)ncnc32)C(O)[C@H]1O", "note": "(stereo partly drawn)", "hepatic nuclei reduction": 5}, {"smiles": "Nc1ncnc2c1ncn2C[C@@H](O)[C@@H](O)C(=O)O", "hepatic nuclei reduction": -3}, {"smiles": "CNc1cc(C)nc(C2CN(C(=O)c3n[nH]c4ccccc34)CCO2)c1", "note": "(stereo not drawn)", "hepatic nuclei reduction": -2}, {"smiles": "Cc1ccc(NC(=O)CC2COc3ccccc3O2)cc1Cl", "note": "(stereo not drawn)", "hepatic nuclei reduction": -7}, {"smiles": "COc1cc2cc(C(=O)Nc3ccccc3)c(N)nc2cc1OC", "hepatic nuclei reduction": -12}, {"smiles": "CCc1ccc(C(NCc2nc(N)nc(N(C)C)n2)C(C)C)cc1", "note": "(stereo not drawn)", "hepatic nuclei reduction": -15}, {"smiles": "OC(CNCC1CCCO1)Cn1c2ccc(Cl)cc2c2cc(Cl)ccc21", "note": "(stereo not drawn)", "hepatic nuclei reduction": 3}, {"smiles": "c1ccc(Cn2c(N=Nc3c(Nc4ccccc4)ccc4ccccc34)nc3ccccc32)cc1", "hepatic nuclei reduction": 4}, {"smiles": "Oc1ccccc1CN1CCC2(CCCN(Cc3ccccc3F)C2)C1", "note": "(stereo not drawn)", "hepatic nuclei reduction": 1}, {"smiles": "Cc1c(C)n(Cc2ccc(F)cc2)c2ccc(C(=O)NCc3ccco3)cc12", "hepatic nuclei reduction": 8}, {"smiles": "CC(C)N=C(N)N=C(N)Nc1ccc(Cl)cc1", "hepatic nuclei reduction": -4}, {"smiles": "Cc1cc(OCC(=O)NCc2ccccc2)c2cc(Br)ccc2n1", "hepatic nuclei reduction": 3}]}]}
